# Results as given in paper PMC8933275.
# Chains of the proteins cited; added tags and fusions are not shown. Residues count along the entry.
# UniProt P01033, residues 24-207: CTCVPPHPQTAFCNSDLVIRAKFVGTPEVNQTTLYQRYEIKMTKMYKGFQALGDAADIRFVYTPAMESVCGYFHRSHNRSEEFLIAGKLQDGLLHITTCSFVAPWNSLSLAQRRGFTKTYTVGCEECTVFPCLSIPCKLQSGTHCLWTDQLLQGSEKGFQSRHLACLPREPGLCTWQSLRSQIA
# These are yes or no findings as the source states them, for the method shown. Binding seen in cells or lysates may run through a third protein. Some binding calls cover weakened binding; strength is not graded here.
# Columns and labels:
# [1] = target: Extravesicular tissue inhibitor of matrix metalloproteinase-1 (TIMP1^EV) (human (endogenous in EVs of HCT116, HT29, SW620)) (UniProt P01033); experiment: co-IP; immunoprecipitation of TIMP1 with an anti-TIMP1 antibody from EVs of CRC cell lines (HCT116, HT29, SW620); rabbit isotype control IgG as negative control; immunoblot for CD63, HSP90AA and TIMP1
# [2] = target: TIMP1 in liver-derived primary fibroblasts (pFs) (UniProt P01033); experiment: co-IP; immunoprecipitation of TIMP1 from pFs treated with CRC-EVs (HCT116, HT29, SW620) for 48 h; immunoblot of the immunocomplexes
# [3] = target: TIMP1 in liver-derived primary fibroblasts (pFs) (UniProt P01033); experiment: condition: only pFs treated with CM instead of CRC-EVs; co-IP; immunoprecipitation of TIMP1 from CM-treated pFs (controls, conditioned medium depleted of EVs); immunoblot of the immunocomplexes
Substance,binding [1],binding [2],binding [3]
HSP90AA (from UniProt P07900 1-732),binds,,
HSP90AA in liver-derived primary fibroblasts (pFs) (from UniProt P07900 1-732),,binds,no binding
